Test results published in patent publication US20230050148A1, “TGF-BETA INHIBITORS AND USE THEREOF” (SCHOLAR ROCK, INC., priority 2020, published 2023).
No constants are given. Whether binding was seen depends on the method and setting. Some binding calls cover weakened binding; strength is not graded here.

The chains behind the UniProt entries cited, without tags or fusion partners. Where a name states a change or a piece, a line headed by the entry shows the natural chain unless it says otherwise.
UniProt P04202: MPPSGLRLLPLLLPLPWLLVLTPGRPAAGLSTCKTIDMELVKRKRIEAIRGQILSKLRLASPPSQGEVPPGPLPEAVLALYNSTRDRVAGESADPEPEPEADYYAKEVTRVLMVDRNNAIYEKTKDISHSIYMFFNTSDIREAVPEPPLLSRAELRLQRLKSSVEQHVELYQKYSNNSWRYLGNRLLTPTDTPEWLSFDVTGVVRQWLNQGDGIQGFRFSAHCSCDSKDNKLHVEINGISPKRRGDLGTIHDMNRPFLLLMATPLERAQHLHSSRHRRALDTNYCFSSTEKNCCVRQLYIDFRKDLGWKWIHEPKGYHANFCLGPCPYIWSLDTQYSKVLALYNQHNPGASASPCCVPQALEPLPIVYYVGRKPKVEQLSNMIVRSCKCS
UniProt P01137: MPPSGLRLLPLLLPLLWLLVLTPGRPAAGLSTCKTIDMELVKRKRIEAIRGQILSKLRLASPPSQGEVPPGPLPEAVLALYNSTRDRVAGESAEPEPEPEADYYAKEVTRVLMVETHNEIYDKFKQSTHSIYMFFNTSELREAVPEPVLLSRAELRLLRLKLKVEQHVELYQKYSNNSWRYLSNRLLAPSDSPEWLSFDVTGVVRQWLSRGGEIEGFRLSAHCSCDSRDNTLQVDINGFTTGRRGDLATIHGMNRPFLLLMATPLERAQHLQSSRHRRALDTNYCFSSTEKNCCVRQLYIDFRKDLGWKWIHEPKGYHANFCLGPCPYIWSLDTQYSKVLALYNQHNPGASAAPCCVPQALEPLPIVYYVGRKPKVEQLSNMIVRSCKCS
UniProt P17246: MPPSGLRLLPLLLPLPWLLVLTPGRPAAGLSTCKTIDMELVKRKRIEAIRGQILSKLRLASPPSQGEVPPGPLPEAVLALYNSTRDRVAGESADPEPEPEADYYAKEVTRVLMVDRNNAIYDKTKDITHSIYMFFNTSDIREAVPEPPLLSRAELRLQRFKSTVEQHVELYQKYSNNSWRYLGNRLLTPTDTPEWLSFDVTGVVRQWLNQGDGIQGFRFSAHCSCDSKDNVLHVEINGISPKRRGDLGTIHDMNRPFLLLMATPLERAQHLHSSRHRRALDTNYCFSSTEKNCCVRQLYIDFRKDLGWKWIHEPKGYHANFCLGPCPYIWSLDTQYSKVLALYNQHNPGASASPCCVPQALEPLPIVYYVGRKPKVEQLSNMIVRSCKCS
UniProt Q5BK65: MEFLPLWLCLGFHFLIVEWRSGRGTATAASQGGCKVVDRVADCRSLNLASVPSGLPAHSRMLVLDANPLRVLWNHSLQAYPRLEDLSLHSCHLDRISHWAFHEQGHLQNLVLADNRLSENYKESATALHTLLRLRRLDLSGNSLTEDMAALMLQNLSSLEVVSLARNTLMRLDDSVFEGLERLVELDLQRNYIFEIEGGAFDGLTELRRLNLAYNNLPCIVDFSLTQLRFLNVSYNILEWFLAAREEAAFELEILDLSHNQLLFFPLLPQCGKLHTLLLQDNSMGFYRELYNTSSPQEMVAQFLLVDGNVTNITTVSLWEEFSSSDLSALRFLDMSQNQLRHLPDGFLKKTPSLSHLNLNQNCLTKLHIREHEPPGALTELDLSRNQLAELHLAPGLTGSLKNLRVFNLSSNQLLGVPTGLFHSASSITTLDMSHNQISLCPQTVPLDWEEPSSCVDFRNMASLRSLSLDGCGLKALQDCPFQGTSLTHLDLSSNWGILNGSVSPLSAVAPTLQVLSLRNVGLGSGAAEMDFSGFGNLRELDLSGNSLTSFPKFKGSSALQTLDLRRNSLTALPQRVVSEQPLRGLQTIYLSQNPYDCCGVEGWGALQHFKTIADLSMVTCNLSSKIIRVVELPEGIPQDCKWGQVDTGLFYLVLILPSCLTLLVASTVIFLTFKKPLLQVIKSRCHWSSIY
UniProt Q00918: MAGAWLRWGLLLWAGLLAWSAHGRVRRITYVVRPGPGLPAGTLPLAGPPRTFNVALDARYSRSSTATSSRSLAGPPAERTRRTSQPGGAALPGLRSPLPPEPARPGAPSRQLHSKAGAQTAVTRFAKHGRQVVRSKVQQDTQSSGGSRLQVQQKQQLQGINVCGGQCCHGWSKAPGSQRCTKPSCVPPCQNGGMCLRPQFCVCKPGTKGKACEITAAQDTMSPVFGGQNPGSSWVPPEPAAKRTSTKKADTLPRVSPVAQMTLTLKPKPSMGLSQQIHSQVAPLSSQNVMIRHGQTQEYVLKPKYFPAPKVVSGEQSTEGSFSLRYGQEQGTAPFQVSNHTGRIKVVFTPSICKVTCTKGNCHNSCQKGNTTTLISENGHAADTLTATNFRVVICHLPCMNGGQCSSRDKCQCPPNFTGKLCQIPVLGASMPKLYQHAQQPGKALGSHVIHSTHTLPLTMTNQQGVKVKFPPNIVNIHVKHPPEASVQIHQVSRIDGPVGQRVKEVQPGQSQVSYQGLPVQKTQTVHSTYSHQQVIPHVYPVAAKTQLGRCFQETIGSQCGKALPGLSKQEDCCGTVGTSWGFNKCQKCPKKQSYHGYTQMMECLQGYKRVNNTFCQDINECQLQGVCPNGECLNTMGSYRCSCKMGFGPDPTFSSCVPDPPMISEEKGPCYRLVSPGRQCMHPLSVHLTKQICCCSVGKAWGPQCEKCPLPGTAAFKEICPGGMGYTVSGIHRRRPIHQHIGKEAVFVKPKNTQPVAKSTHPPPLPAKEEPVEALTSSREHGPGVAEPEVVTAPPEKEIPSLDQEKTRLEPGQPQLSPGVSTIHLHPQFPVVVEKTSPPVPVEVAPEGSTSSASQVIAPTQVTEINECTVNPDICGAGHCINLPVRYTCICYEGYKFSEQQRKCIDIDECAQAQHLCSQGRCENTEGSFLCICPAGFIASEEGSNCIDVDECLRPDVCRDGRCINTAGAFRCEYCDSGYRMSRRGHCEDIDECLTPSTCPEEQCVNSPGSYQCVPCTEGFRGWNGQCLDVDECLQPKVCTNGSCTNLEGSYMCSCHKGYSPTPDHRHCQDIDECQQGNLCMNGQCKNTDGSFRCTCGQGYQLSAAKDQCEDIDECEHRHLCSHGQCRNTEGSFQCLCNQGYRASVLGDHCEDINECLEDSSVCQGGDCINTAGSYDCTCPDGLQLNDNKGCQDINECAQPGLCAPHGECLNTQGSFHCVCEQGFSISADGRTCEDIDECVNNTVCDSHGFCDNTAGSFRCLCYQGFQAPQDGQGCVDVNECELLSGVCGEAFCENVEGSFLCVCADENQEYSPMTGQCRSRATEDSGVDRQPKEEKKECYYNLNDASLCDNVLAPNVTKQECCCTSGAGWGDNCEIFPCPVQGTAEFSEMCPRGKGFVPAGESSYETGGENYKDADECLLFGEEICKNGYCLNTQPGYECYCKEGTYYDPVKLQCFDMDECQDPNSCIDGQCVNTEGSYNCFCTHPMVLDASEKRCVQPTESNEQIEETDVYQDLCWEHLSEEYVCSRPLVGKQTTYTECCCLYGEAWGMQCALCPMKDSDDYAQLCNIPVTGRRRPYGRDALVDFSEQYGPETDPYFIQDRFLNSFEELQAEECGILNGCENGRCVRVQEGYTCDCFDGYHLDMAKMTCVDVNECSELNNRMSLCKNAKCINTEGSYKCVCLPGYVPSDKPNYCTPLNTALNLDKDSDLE

How the values were obtained:
[1] = molecular target: recombinant murine LTBP1-proTGFβ1 complex (mouse) (UniProt P04202); assay: BLI screen of library antibodies
[2] = molecular target: recombinant murine LTBP3-proTGFβ1 complex (mouse) (UniProt P04202); assay: BLI screen of library antibodies
[3] = molecular target: cell-surface LRRC33-proTGFβ1 on Expi293 cells (Homo sapiens (Human)) (UniProt P01137); assay: Incucyte internalization assay with pH-sensitive label, Expi293 cells
[4] = molecular target: rat LRRC33-proTGFβ1 complex (rat) (UniProt P17246+Q5BK65); assay: MSD-SET
[5] = molecular target: rat LTBP1-proTGFβ1 complex (rat) (UniProt P17246+Q00918); assay: MSD-SET
[6] = molecular target: cynomolgus LRRC33-proTGFβ1 complex (cynomolgus monkey); assay: MSD-SET

Measured: binding

B1: Ab4 (antibody, V domains shown)
VH: EVQLVESGGGLVQPGGSLRLSCAASGFTFSSYSMNWVRQAPGKGLEWVSYISSSSSTIYYADSVKGRFTISRDNAKNSLYLQMNSLRAEDTAVYYCARGVLDYGDMLDPWGQGTLVTVSS
VL: DIQMTQSPSSLSASVGDRVTITCQASQDITNYLNWYQQKPGKAPKLLIYDASNLETGVPSRFSGSGSGTDFTFTISSLQPEDIATYYCQQADNHPPWTFGGGTKVEIK
binds: [1] | [2]

B2: Ab6 (antibody, V domains shown)
VH: EVQLVESGGGLVQPGGSLRLSCTASGFTFSSFSMDWVRQAPGKGLEWVSYISPSADTIYYADSVKGRFTISRDNAKNTLYLQMNSLRAEDTAVYYCARGVLDYGDMLMPWGQGTLVTVSS
VL: DIQMTQSPSSLSASVGDRVTITCQASQDITNYLNWYQQKPGKAPKLLIYDASNLETGVPSRFSGSGSGTDFTFTISSLQPEDIATYYCQQADNHPPWTFGGGTKVEIKR
binds: [3] | [4] | [5] | [6]
